These results are taken from PubChem BioAssay AID2685 (National Center for Advancing Translational Sciences (NCATS), 2010).

This is one part of the list. The main result of the screen is listed elsewhere. These columns were measured beside it and carry no call. Compounds called inactive in the main read-out are mostly missing here. Potencies come from curve fits of mixed quality, noted in brackets.

The assay can be described thus: qHTS Assay for Lipid Storage Modulators in Drosophila S3 Cells.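 On cell number change: cells counted by Cell Tracker Red CMTPX staining in the red channel.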 The settings on record: BODIPY lipid droplet fluorescence, 18-24 h; for cell number change: measured here: cell count max response, cells fed with added oleic acid. The method, boiled down:
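Drosophila S3 cells got compounds at several concentrations plus oleic acid (400 uM solution). Laser-scanning cytometry with 488 nm excitation read lipid droplets at 500-530 nm and cells at 575-640 nm. Percent activity was relative to 20 uM Triacsin C.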
(In general: qHTS replaces the single test concentration by a dilution series.)

The mark [1] stands for this setting: measured here: lipid fluorescence (Fed channel) AC50, cells fed with added oleic acid.
Setting [2] is: measured here: cell number channel AC50, cells fed with added oleic acid.

Turning to `CC(=O)N1c2ccc(S(=O)(=O)N3CCCC(C(=O)N4CCC(C)CC4)C3)cc2CC1C` (stereo not drawn), the cell number change is -5.39%. Moreover, the AC50 – broadly, the midpoint of the concentration-response curve, whichever way the signal moves – under setting [1] was 0.58 µM [rising, single point].

On to `CC(=O)Nc1ccc(SCC(=O)OCC(=O)NC(=O)NC2CCCC2)cc1`, for which the cell number change was -4.05%. For the same molecule, under setting [1], the AC50 is 2.06 µM [falling, single point].

Consider `Cc1cc(C(=O)NNc2c(Cl)cccc2Cl)n(C(C)(C)C)n1`, for which the cell number change came out at 37.5%. The AC50 under setting [2] was 0.366 µM [rising, full curve, poor fit]. Also, the concentration at half-maximal activity (AC50) under setting [1] was 0.58 µM [rising, full curve].

For the molecule `Cc1cc2cc(CN(Cc3ccco3)C(=S)NCC3CCCO3)c(=O)[nH]c2cc1C` (stereo not drawn), the cell number change was -9.31%. The AC50 under setting [2] is 2.31 µM [rising, partial curve]. For the same molecule, under setting [1], the AC50 is 6.51 µM [rising, single point].

Turning to `COc1ccccc1CC(NC(C)=O)C(=O)NC1CCN(C(=O)Nc2ccccc2C)CC1` (stereo not drawn), the cell number change came out at 32.1%. Further, the AC50 under setting [2] is 16.4 µM [rising, partial curve, poor fit].

Turning to `COc1cc(/C=C(/C#N)c2ccccc2)ccc1Oc1ccc([N+](=O)[O-])cn1`, the cell number change is -0.78%. The AC50 under setting [1] is 0.58 µM [rising, single point].

Take `Cc1nn(CC(=O)Nc2cccc(C(F)(F)F)c2)c(=O)c2cccn12`: the cell number change came to 12.4%. For the same molecule, the AC50 under setting [1] is 20.6 µM [falling, single point].

Regarding `CCC(=O)c1ccc(OCC(O)CN2CCc3ccccc3C2)cc1` (stereo not drawn), the cell number change came out at 6.2%. Under setting [1], the AC50 was 0.58 µM [falling, single point].

Regarding `CN1CCN(C(=O)c2cc3c(n(-c4ccccc4)c2=O)CC(C)(C)CC3=O)CC1`, the cell number change was 1.7%. The AC50 under setting [1] is 0.461 µM [rising, full curve].

For the molecule `Cc1ccc2c(CC(=O)OCc3nc(N)nc(Nc4ccccc4C)n3)coc2c1`, the cell number change is -29.6%. Under setting [1], the AC50 is 0.00461 µM [rising, full curve].

Take `O=C(C1=C[C@H](c2coc3ccccc3c2=O)C[C@H](OCc2ccc(CO)cc2)O1)N1CCN(Cc2ccccc2)CC1`: the cell number change is -14.6%. Moreover, under setting [1], the AC50 was 2.31 µM [falling, partial curve, poor fit].

Turning to `Cn1c(SCC(=O)Nc2ccc(F)cc2F)nnc1-c1cccnc1`, the AC50 under setting [2] is 6.51 µM [rising, single point].

For the molecule `CN(C)CCCNc1ccc(S(N)(=O)=O)cc1[N+](=O)[O-]`, the cell number change was found to be 16.7%. Moreover, the AC50 under setting [2] is 6.51 µM [rising, single point].

Regarding `COc1ccccc1-n1c(SCC(=O)Nc2ccc(C)cc2)nc(O)cc1=O`, the cell number change was found to be 7.97%. Also, the AC50 under setting [1] was 2.59 µM [rising, single point].

For `Cc1cc2c(NC(=O)Nc3ccc(C(F)(F)F)cc3)cccc2nn1`, the cell number change stood at 5.9%. The AC50 under setting [1] is 3.66 µM [rising, partial curve, poor fit].

For `CC(=O)OCCNc1cc(Sc2nc3ccccc3[nH]2)c2nonc2c1[N+](=O)[O-]`, the cell number change is -38.7%. Further, under setting [2], the AC50 was 4.11 µM [falling, full curve]. Under setting [1], the AC50 is 4.11 µM [falling, full curve].

Take `O=C(NCCN=C1NS(=O)(=O)c2ccccc21)c1ccco1`: the cell number change was -84.8%. Moreover, the AC50 under setting [2] was 14.6 µM [falling, partial curve]. Further, the AC50 under setting [1] is 1.84 µM [falling, partial curve].

On to `O=C(CN1CCCC1c1ccc2c(c1)OCCO2)NC(=O)Nc1ccccc1` (stereo not drawn), for which the cell number change was -6.24%. Further, under setting [1], the AC50 was 0.58 µM [falling, single point].

As for `CCS(=O)(=O)c1ccc2oc(SCC(=O)NCCc3ccc(OC)cc3)nc2c1`, the cell number change is 2.19%. For the same molecule, the AC50 under setting [2] is 7.31 µM [falling, partial curve, poor fit].

As for `CCCC(C)C(=O)Nc1cc([N+](=O)[O-])ccc1Cl` (stereo not drawn), the AC50 is, setting by setting: under setting [2], 3.26 µM [rising, partial curve]; under setting [1], 1.46 µM [rising, partial curve].

`CC(C)CNC(=O)c1cccc(NC(=O)COc2ccc([N+](=O)[O-])cc2)c1`: the cell number change is 1.08%. The AC50 under setting [1] was 1.46 µM [rising, partial curve].

As to `Cc1cc(C)cc(N(CC(=O)N2CCC(C)CC2)S(=O)(=O)c2ccccc2)c1`, the cell number change amounted to 70.1%. Moreover, under setting [2], the AC50 was 25.9 µM [rising, single point].

As for `Nc1c(C(O)(C(F)(F)F)C(F)(F)F)cc(C(O)(C(F)(F)F)C(F)(F)F)c2ccccc12`, the cell number change is -51.3%. Under setting [2], the AC50 was 7.31 µM [falling, partial curve]. Moreover, the AC50 under setting [1] is 9.2 µM [falling, partial curve].

Regarding `Cc1nc(-c2ccc(F)cc2)c(CC(=O)Nc2cc(S(=O)(=O)N3CCCCC3)ccc2C)s1`, the cell number change is -10.1%.

In the case of `Cc1sc(N)nc1C12CC3CC(CC(C3)C1)C2`, the cell number change is -42.4%. Also, under setting [2], the AC50 was 14.6 µM [falling, partial curve, poor fit].

Turning to `CC(C)[C@H](NC(=O)OC(C)(C)C)c1nnc(S(=O)(=O)Cc2c(F)cccc2Cl)o1`, the cell number change is -90.9%. For the same molecule, the AC50 under setting [2] is 16.4 µM [falling, partial curve]. Besides, the AC50 under setting [1] is 23.1 µM [falling, single point].

Consider `CCCOP(=O)(c1ccc(N(C)C)cc1)C(O)c1cccnc1` (stereo not drawn), for which the cell number change turned out to be 52.1%. Besides, the AC50 under setting [1] is 29.1 µM [rising, single point].

For the molecule `CC1(C)OC(C)(C)/C(=C/Nc2ccccc2)C1=O`, the cell number change stood at 23.2%. Moreover, under setting [1], the AC50 was 0.517 µM [rising, partial curve].

Regarding `CN1CCCC1CCNc1ccc2oc3ccccc3c(=O)c2c1` (stereo not drawn), the cell number change was determined as 18.1%. For the same molecule, the AC50 under setting [1] is 18.4 µM [rising, partial curve].

Consider `CCN(CC(=O)Nc1ccc2c(c1)OCCO2)C(=O)CC1CCCC1`, for which the cell number change came out at 33.5%. In addition, the AC50 under setting [2] is 32.6 µM [rising, single point].

`Cc1cc(OCCn2cc(/C(N)=N/O)c3ccccc32)ccc1Cl`: the cell number change is -21%. Also, the AC50 under setting [1] was 16.4 µM [falling, single point].

`COc1ccc(S(=O)(=O)/N=C2\C=C(Nc3ccc(O)cc3)C(=O)c3ccccc32)cc1`: the cell number change stood at 13.5%. The AC50 under setting [1] was 1.46 µM [falling, full curve].

With `Cc1ccc(OCC(=O)Oc2c(C)cccc2C)cc1C`, the cell number change was -13.2%.

In the case of `Cc1cc2nc(-c3ccc(SCc4ccccn4)nc3)[nH]c2cc1C`, under setting [2], the AC50 is 0.82 µM [rising, full curve, poor fit].

`Cc1csc(CNc2ncnc3ccc(-c4cccc(Cl)c4)cc23)c1`: the cell number change was 20.5%.

In the case of `Cc1oc(-c2ccccc2)nc1CS(=O)CC(=O)NC1CCCC1` (stereo not drawn), the cell number change was -9.22%. For the same molecule, the AC50 under setting [1] is 32.6 µM [rising, single point].
